PubChem BioAssay AID1671195 – Yale University, 2021
In all, the deposit lists about 22,000 reagents; this is a random part of them. About 1,510 of all reagents (6.9%) count as active. 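Active includes knockdowns raising or lowering LDL uptake; positive z-scores mean more uptake, negative mean less.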 No sequences are given here.

Purpose: 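Knockdowns that increase or decrease uptake of fluorescent LDL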 (primary screen)
Cells: human Huh7 hepatoma cells
Reagent: siRNA pool against human genes, 18 nM
Time to read-out: about 2 to 2.5 days of knockdown, then 8 h LDL uptake
Treatment: DiI-labelled LDL at 30 µg/ml for 8 h, in lipoprotein-deficient serum medium
Measured: 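Per-cell DiI-LDL intensity by automated imaging; well means scaled to the plate median and given as a robust z-score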
Reading the numbers: robust z-score: higher = more LDL uptake after knockdown
Rule for the call: 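Active when two or more replicates show a robust z-score above 2 or below -2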

no.	target gene	PubChem SID	robust z-score, replicate 1	robust z-score, replicate 2	robust z-score, replicate 3	Call
1	RSPO1	SID442894561	-0.0881	-0.18	0.0424	inactive
2	IKZF3	SID442903777	-1.32	-1.53	-1.32	inactive
3	CFL1P6	SID442891259	0.696	0.0353	0.198	inactive
4	ZNF777	SID442894729	-0.95	0.627	0.0384	inactive
5	FAM3B	SID442899251	-0.671	-0.622	-0.495	inactive
6	SMAD6	SID442902248	-1.31	-0.854	-0.95	inactive
7	LGI3	SID442887516	0.836	1.17	0.685	inactive
8	LOC389142 (retired record)	SID442892642	0.306	-0.112	0.232	inactive
9	SYT5	SID442891959	0.207	0.122	0.346	inactive
10	LOC441574 (retired record)	SID442887275	1.43	0.611	0.807	inactive
11	SYPL2	SID442894774	0.0145	0.0536	-0.366	inactive
12	DNAJC11	SID442887186	1.08	0.609	1.21	inactive
13	DGKE	SID442893657	0.299	-0.112	-0.114	inactive
14	ZNF624	SID442883285	3.85	3.37	3.11	active
15	RPL7P38	SID442901401	-0.675	-0.757	-1.26	inactive
16	AADACL4	SID442893244	0.0657	0.46	-0.309	inactive
17	KRTAP9-4	SID442884008	2.52	1.49	2.2	active
18	ACOT13	SID442885611	1.01	1.08	2.23	inactive
19	SSTR4	SID442886340	1.14	0.828	1.6	inactive
20	NETO1	SID442904022	-1.02	-1.64	-1.73	inactive
21	VTI1BP2	SID442889916	0.365	0.48	0.624	inactive
22	ZNF526	SID442895916	-0.616	0.31	-0.353	inactive
23	RAB40C	SID442896822	0.547	-0.99	-0.507	inactive
24	USP50	SID442894095	-0.162	0.2	-0.115	inactive
25	LOC440358 (retired record)	SID442898695	-0.536	-0.283	-0.763	inactive
26	USE1	SID442903862	-1.98	-1.09	-1.18	inactive
27	C19orf38	SID442890775	0.108	0.431	0.571	inactive
28	GAREM2	SID442901737	-0.664	-0.962	-1.22	inactive
29	LOC389199	SID442885627	1.21	1.9	1.19	inactive
30	ABHD3	SID442896838	-0.351	-0.447	-0.157	inactive
31	PPA1	SID442891324	0.0833	0.376	0.441	inactive
32	RAP1GAP	SID442888691	0.683	0.0791	1.27	inactive
33	ST6GAL1	SID442893584	-0.0168	0.0805	0.034	inactive
34	LOC440958 (retired record)	SID442897299	-0.0434	-0.667	-0.4	inactive
35	LOC391705 (retired record)	SID442886675	1.6	0.578	1.1	inactive
36	FBRS	SID442884896	1.76	1.6	2.03	inactive
37	LOC441510 (retired record)	SID442896967	0.105	-0.62	-0.481	inactive
38	RBBP5	SID442891261	0.251	0.39	0.288	inactive
39	TMEM245	SID442886883	0.256	0.973	1.89	inactive
40	UBE2L3	SID442892908	0.492	0.331	-0.489	inactive
41	STARD4	SID442886683	0.644	2.1	0.518	inactive
42	SHB	SID442901602	-0.0988	-1.41	-1.27	inactive
43	FAM107A	SID442900163	-0.633	-0.646	-0.886	inactive
44	ATAD3C	SID442904760	-1.92	-1.82	-1.88	inactive
45	ZNF260	SID442893388	0.0283	0.236	-0.0938	inactive
46	PXDC1	SID442895282	-0.112	-0.446	0.0984	inactive
47	FAM111A	SID442894915	0.104	-0.202	-0.244	inactive
48	PRUNE1	SID442884160	2.28	1.33	1.98	active
49	HAS2	SID442903069	-1.05	-1.34	-1.23	inactive
50	ACTB	SID442889996	0.545	1.03	-0.142	inactive
51	LOC390944 (retired record)	SID442897198	-0.352	-0.492	-0.229	inactive
52	TRIM16	SID442887600	-0.0082	1.73	0.914	inactive
53	YTHDF2	SID442884804	2	1.85	1.79	inactive
54	TAPT1	SID442893603	-0.107	0.0564	0.143	inactive
55	C8orf82	SID442897468	-0.629	-0.043	-0.495	inactive
56	LOC441634 (retired record)	SID442888818	0.735	0.847	0.386	inactive
57	ELOA3P	SID442891014	0.717	0.265	0.0399	inactive
58	RAB17	SID442889685	0.931	0.3	0.339	inactive
59	DDX52	SID442884705	0.789	1.6	3.44	inactive
60	DEK	SID442902674	-1.08	-1.85	-0.446	inactive
61	RPL23AP76	SID442903376	-0.839	-1.48	-1.53	inactive
62	DERL2	SID442890091	1.24	-0.471	0.624	inactive
63	UTP23	SID442885918	1.08	1.79	1.1	inactive
64	LARGE1	SID442892515	0.43	0.0787	-0.0354	inactive
65	DMC1	SID442897157	-0.565	0.214	-0.71	inactive
66	ZNF77	SID442902461	-1.2	-1.27	-0.767	inactive
67	ECE1	SID442888840	0.941	0.487	0.529	inactive
68	SLC12A9	SID442892933	-0.00901	0.208	0.125	inactive

6 neighbouring records from above, for reference:
no.	target gene	PubChem SID	robust z-score, replicate 1	robust z-score, replicate 2	robust z-score, replicate 3	Call
52	TRIM16	SID442887600	-0.0082	1.73	0.914	inactive
53	YTHDF2	SID442884804	2	1.85	1.79	inactive
54	TAPT1	SID442893603	-0.107	0.0564	0.143	inactive
55	C8orf82	SID442897468	-0.629	-0.043	-0.495	inactive
56	LOC441634 (retired record)	SID442888818	0.735	0.847	0.386	inactive
57	ELOA3P	SID442891014	0.717	0.265	0.0399	inactive
